Values quoted from earlier work in article PMC4042406 (British journal of haematology, 2011).

Tested on: most MM cell lines
Settings: ref MacCallum, et al 2005, Raje; cited from earlier work

Q: Which EC50 does the source give for `CC[C@H](CO)Nc1nc(NCc2ccccc2)c2ncn(C(C)C)c2n1` [seliciclib] here?
A: Its EC50 is greater than 10 µM.
